Test results: paper doi:10.1101/2021.02.02.429361 (bioRxiv, 2021)
Where a chain is given by its changes, count along the chain named. Names and notes keep the numbering of the source. Results are given in words; binding and its absence hold for the method and conditions named. For part of these data: Binding seen in cells or lysates may run through a third protein. Some results given as binding are weak or reduced against the parent protein; the word gives no strength. Tags and fused reporters may be left off the sequences shown. One block for each binder: values may come before it.

Tests used:
[1] = target: T1, AtMPK3 (mitogen activated protein kinase-3), full length, yeast two-hybrid fusion (Arabidopsis thaliana) (UniProt Q39023); assay: two-hybrid
T1 sequence: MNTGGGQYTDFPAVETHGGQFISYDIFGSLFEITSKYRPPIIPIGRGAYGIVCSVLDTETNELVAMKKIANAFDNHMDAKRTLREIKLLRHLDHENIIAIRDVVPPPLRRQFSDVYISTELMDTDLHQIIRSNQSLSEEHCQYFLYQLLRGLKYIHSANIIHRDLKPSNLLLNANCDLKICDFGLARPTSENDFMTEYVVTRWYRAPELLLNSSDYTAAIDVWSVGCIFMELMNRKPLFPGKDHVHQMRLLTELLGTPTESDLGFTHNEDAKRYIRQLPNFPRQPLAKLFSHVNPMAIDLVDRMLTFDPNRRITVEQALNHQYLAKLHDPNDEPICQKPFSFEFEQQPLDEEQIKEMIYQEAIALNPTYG

[2] = target: T2, AtABI5^S314A (phospho-null), BiFC fusion (Arabidopsis thaliana) (UniProt Q9SJN0); assay: split reporter
T2 sequence: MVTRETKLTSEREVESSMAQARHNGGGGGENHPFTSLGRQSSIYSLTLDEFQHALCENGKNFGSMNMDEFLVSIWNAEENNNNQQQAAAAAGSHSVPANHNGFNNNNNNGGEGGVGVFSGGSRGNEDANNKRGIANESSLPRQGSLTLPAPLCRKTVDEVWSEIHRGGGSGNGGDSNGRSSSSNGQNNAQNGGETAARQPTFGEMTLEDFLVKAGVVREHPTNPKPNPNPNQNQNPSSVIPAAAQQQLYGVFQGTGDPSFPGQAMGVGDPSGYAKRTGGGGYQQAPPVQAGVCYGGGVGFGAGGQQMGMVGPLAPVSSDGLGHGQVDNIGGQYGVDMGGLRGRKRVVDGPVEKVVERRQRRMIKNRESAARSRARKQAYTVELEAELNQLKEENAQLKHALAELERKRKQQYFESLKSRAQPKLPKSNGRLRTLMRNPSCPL

[3] = target: AtABI5^S314D (phospho-mimic), BiFC fusion (Arabidopsis thaliana) (UniProt Q9SJN0); assay: split reporter
[4] = target: AtABI5 wild type, BiFC fusion (ABI5-nYFP) (Arabidopsis thaliana) (UniProt Q9SJN0); assay: split reporter
[5] = target: T3, MPK3-cYFP (BiFC fusion) (Arabidopsis thaliana) (UniProt Q39023); assay: split reporter
T3 sequence: T1 sequence

B2: AtABI5^S314A (phospho-null), BiFC fusion (protein, UniProt Q9SJN0 1-442)
chain: T2 sequence
- binding [2]: binds

B3: AtABI5^S314D (phospho-mimic), BiFC fusion (protein, UniProt Q9SJN0 1-442)
chain: T2 sequence with A314D
- binding [2]: no binding
- binding [3]: no binding

Results, then the binder that gave them:

- binding [1]: binds
B1: AtABI5 (ABSCISIC ACID-… 5) full length, yeast two-hybrid fusion (protein, UniProt Q9SJN0 1-442)
chain: T2 sequence with A314S

- binding [4]: binds
- binding [5]: binds
B4: AtABI5 wild type, BiFC fusion (ABI5-nYFP) (protein, UniProt Q9SJN0 1-442)
chain: T2 sequence with A314S
